Measured values: PubChem BioAssay AID2685 (National Center for Advancing Translational Sciences (NCATS), 2010)
Hit rate of the full screen: of about 320,000 compounds, about 2,100 (0.66%) were called active. The inconclusive results got no clear call from the source; some entries with a clear call stand among them for comparison. The call rests on the fitted dose curve; in most records, active means well fitted inhibition curve with a large enough effect in the signal ratio, with a control signal flat (not every such curve was filed as active); inconclusive means small, poorly fitted or top-dose-only effect, or effect the other way, or a change in a side signal; inactive means flat fitted curve, though single readings scatter; the % refers to the signal ratio. A potency beside an inconclusive call is a rough fit, not a confirmed value.

experiment: qHTS Assay for Lipid Storage Modulators in Drosophila S3 Cells; details: BODIPY lipid droplet fluorescence, 18-24 h, cells fed with added oleic acid; lipid storage change, negative = inhibition: at 46.1 µM (top of the series) unless noted
Procedure, shortened: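 Drosophila S3 cells loaded with oleic acid (400 uM, as added) and compounds at several concentrations; lipid droplets imaged by 488-nm laser-scanning cytometry, 500–530 nm intensity and object ratio to cell channel. Percent activity normalized to 20 uM Triacsin C.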
On the % scale 0 is the no-effect control and ±100 the full control effect; potency means the concentration at half of the fitted maximal effect.

| Structure (SMILES) | Potency | lipid storage change, negative = inhibition | outcome |
| --- | --- | --- | --- |
| N#CCC(=O)N/N=C/c1ccc(OS(=O)(=O)c2ccccc2)cc1 | inconclusive: 5.17 µM [rising, partial curve] |  |  |
| C/C(CC(=O)NCCCN1CCOCC1)=N\NC(=O)COc1ccc(Cl)cc1 |  | inconclusive: 21.4% |  |
| Nc1ccccc1Nc1c(F)c(F)nc(F)c1Cl | inconclusive: 29.1 µM [falling, single point] |  |  |
| CCOC(=O)C1=C(CC)Nc2ccccc2N/C1=N\S(=O)(=O)c1ccc2ccccc2c1 |  | inconclusive: 48.6% |  |
| COc1ccc(CC(=O)Nc2ccc(N3CCCC3)c(C)c2)cc1 | inconclusive: 29.1 µM [activator, single point] |  |  |
| CN(C)C=NC(=O)c1ccc(N2CCN(c3ncc(C(F)(F)F)cc3Cl)CC2)cc1 |  | inconclusive: 6.02% |  |
| CS(=O)(=O)N1CCN(c2ccc(Cl)cc2[N+](=O)[O-])CC1 | inconclusive: 0.82 µM [cytotoxic, single point] |  |  |
| CSc1nnc(-c2ccc(S(=O)(=O)N3CCCC3)cc2)n1C | inconclusive: 0.0517 µM [activator, full curve, poor fit] |  |  |
| Cc1ccc(-c2csc3ncnc(-n4nnc5ccccc54)c23)cc1C |  | inconclusive: 122% |  |
| COC(=O)c1cccc(NC(=O)c2ccc3c(c2)C(=O)N(Cc2cccnc2)C3=O)c1C | inconclusive: 29.1 µM [activator, single point] |  |  |
| Cc1cc(C)[n+](-c2ccc(Oc3ccccc3)c(S(=O)(=O)[O-])c2)[nH]1 |  | inconclusive: -62.2% |  |
| O=C(Nc1nn[nH]n1)c1cccc([N+](=O)[O-])c1 |  | inconclusive: -39.6% |  |
| COc1cc(OC)cc(C(=O)Nc2ccc(C(=O)c3ccncc3)cc2)c1 |  | inactive: -7.33% |  |
| CCOc1ccc(NC(=O)Cc2ccccc2)cc1 |  | inconclusive: 0.796% |  |
| CCOC(=O)C1CCCN(S(=O)(=O)c2ccc3c4c(cccc24)C(=O)N3CC)C1 (centres undefined) |  | inconclusive: -17.5% |  |
| O=C(CSc1ncn[nH]1)Nc1cc(S(=O)(=O)N2CCCC2)ccc1Cl |  |  | inactive [at 46.1 µM] |
| CCN(CC)c1ccc(C=Nc2ccc(N(C)C)cc2)c(O)c1 | inconclusive: 29.1 µM [falling, single point] |  |  |
| CC(=O)c1ccc(-n2c(=O)[nH]c(=O)c3c(N)c(C(=O)c4ccc(Cl)cc4)sc32)cc1 |  | inconclusive: -50.5% |  |
| O=C1/C(=C/c2ccccc2)SC(=S)N1CCCC(=O)N1CCCCC1CCO (centres undefined) | active: 18.4 µM |  |  |
| Cc1ccc(N2CC(C(=O)Nc3ccccc3N3CCCC3)CC2=O)cc1 (centres undefined) |  | inconclusive: 17.8% |  |
| Cc1cc(-c2ccc(/C=N/n3cnnc3)o2)ccc1Cl |  | inconclusive: 10.3% |  |
| Cc1cccc(C)c1NC(=O)COC(=O)c1cc(=O)[nH]c2ccccc12 |  | inconclusive: 23.2% |  |
| Cc1ccc(NC(=O)Nc2cc(S(=O)(=O)N(C)C)ccc2C)cc1 | inconclusive: 29.1 µM [activator, single point] |  |  |
| COc1ccc(S(=O)(=O)N(C)CC(=O)N2CCN(C)CC2)cc1Cl |  | inconclusive: -28.8% |  |
| CCCn1c(C2CCCN2c2nc(-c3ccc(C)cc3)cs2)nc2ccccc21 (centres undefined) |  | inconclusive: -15.3% |  |
| CC(C)Sc1nnc(NC(=O)c2ccco2)s1 |  | inconclusive: 14.3% |  |
| O=C(CC(=O)Nc1ccccc1F)Nc1ccccc1F |  | inconclusive: 9.47% |  |

Some of the entries above in another layout:
N#CCC(=O)N/N=C/c1ccc(OS(=O)(=O)c2ccccc2)cc1
  Potency: inconclusive: 5.17 µM [rising, partial curve]
CSc1nnc(-c2ccc(S(=O)(=O)N3CCCC3)cc2)n1C
  Potency: inconclusive: 0.0517 µM [activator, full curve, poor fit]
Cc1ccc(-c2csc3ncnc(-n4nnc5ccccc54)c23)cc1C
  lipid storage change, negative = inhibition: inconclusive: 122%
O=C(CSc1ncn[nH]1)Nc1cc(S(=O)(=O)N2CCCC2)ccc1Cl
  outcome: inactive [at 46.1 µM]

(cont.)

| Structure (SMILES) | Potency | lipid storage change, negative = inhibition | outcome |
| --- | --- | --- | --- |
| CC(C)C(=O)Nc1ccc(C(=O)NN2C(=O)c3ccccc3C2=O)cc1 |  | inconclusive: 8.65% |  |
| CC(C)COc1nc2ccccc2c(=O)n1OCC(=O)O |  | inconclusive: 12.6% |  |
| O=C(NCc1ccc(Cl)cc1)C1CCCCN1S(=O)(=O)c1ccccc1 (centres undefined) | inconclusive: 0.058 µM [activator, full curve, poor fit] |  |  |
| CCCOc1ccc(-c2c(C(=O)N/N=C/c3ccc(C)o3)nnn2-c2nonc2N)cc1 |  | inconclusive: -39% |  |
| CN(CCCC(=O)Nc1nccs1)S(=O)(=O)c1ccc(Cl)cc1 |  | inconclusive: 70.7% |  |
| Cc1ccc(OCCC(=O)OCC(=O)Nc2ccc(Cl)cn2)cc1 |  | inactive: 6.81% |  |
| COc1ccc(CC(=O)Oc2cc(C)ccc2C)cc1 |  | inconclusive: 27.3% |  |
| O=C(CN1C(=O)NC2NC(=O)NC21)N/N=C/c1ccccc1O (centres undefined) |  | inconclusive: -22% |  |
| N#C/C(=C\C=C\c1ccccc1[N+](=O)[O-])c1nc(-c2ccc3c(c2)OCO3)cs1 |  | inconclusive: 18.3% |  |
| CC1(C)Nc2ccccc2N(CCC(=O)N2CCOCC2)C1=O | inconclusive: 0.116 µM [falling, full curve, poor fit] |  |  |
| CC(C)(C)C(=O)CSc1ncccn1 |  | inconclusive: 11.7% |  |
| CCCCNC(=O)c1ccc(C)c(NC(=O)C2=C(C)OCCS2)c1 |  | inconclusive: -35.3% |  |
| CC1(/[N+]([O-])=C\c2ccccc2F)CCCCC1=O (centres undefined) | inconclusive: 0.0052 µM [falling, full curve, poor fit] |  |  |
| COc1ccc2nc(SCC(=O)Nc3ccccc3C)[nH]c2c1 |  | inconclusive: 17.9% |  |
| CCc1c(C)sc2nc(SCC(=O)Nc3cc(C)on3)n(CCOC)c(=O)c12 | inconclusive: 2.06 µM [activator, partial curve] |  |  |
| COC(=O)[C@@H](NC(=O)Nc1ccccc1F)C(C)C |  | inconclusive: -22.2% |  |
| COc1ccc(CCNC(=O)c2cc(=O)c3ccc(C)cc3o2)cc1OC |  | inconclusive: 2.13% |  |
| O=C(CCNC(=O)N1CC(=O)Nc2ccccc21)Nc1ccc(Cl)cc1 | inconclusive: 0.0082 µM [falling, full curve, poor fit] |  |  |
| CSc1nsc(/C=C/Nc2ccc(C(=O)O)cc2)c1C#N |  | inconclusive: -18.9% |  |
| CC(C)(C)NC(=O)c1nc2ccccc2s1 |  | inconclusive: 28% |  |
| COc1ccc(NC(=O)Nc2ccc(F)cc2)cn1 | inconclusive: 25.9 µM [activator, partial curve] |  |  |
| COc1ccc(C(=O)Nc2ccc3oc(-c4cccnc4)nc3c2)cc1OC |  | inconclusive: -28.6% |  |
| O=C(/C=C/c1cccc([N+](=O)[O-])c1)N1CCN(c2ccccn2)CC1 | inconclusive: 6.51 µM [activator, single point] |  |  |
| COc1ccc(S(=O)(=O)Cc2ccc(C(=O)N3CCN(C4CCCCC4)CC3)o2)cc1 | inconclusive: 6.51 µM [falling, single point] |  |  |
| CC(OC(=O)c1cccc(S(=O)(=O)Nc2ccccc2F)c1)C(=O)NCc1ccc2c(c1)OCO2 (centres undefined) |  | inconclusive: 21.1% |  |
| CCC/C(=C1/C(=O)CC(C)(C)C(C(=O)OC)C1=O)N1CCCC1 (centres undefined) |  | inconclusive: 8.26% |  |
| CCN(CC)CCCn1c(SCC(=O)NCC2CCCO2)nc2ccccc2c1=O (centres undefined) |  | inconclusive |  |

Some of the entries so far, in CSV form:
Structure (SMILES),Potency,"lipid storage change, negative = inhibition",outcome
CCOc1ccc(NC(=O)Cc2ccccc2)cc1,,inconclusive: 0.796%,
CCOC(=O)C1CCCN(S(=O)(=O)c2ccc3c4c(cccc24)C(=O)N3CC)C1 (centres undefined),,inconclusive: -17.5%,

Further records

| Structure (SMILES) | Potency | lipid storage change, negative = inhibition | outcome |
| --- | --- | --- | --- |
| CCCCN(CC)C(=O)Cc1ccc(Br)cc1 | inconclusive: 23.1 µM [activator, single point] |  |  |
| Cc1ccccc1NC(=O)c1ccccc1NC(=O)c1cccs1 | inconclusive: 2.91 µM [activator, full curve] |  |  |
| COc1ccc(CC(=O)NC2CC2)cc1OC |  |  | inactive [at 46.1 µM] |
| Cc1cccc(N2C(=O)N3[C@@H]4c5ccccc5OC[C@@H]4[C@@H](c4ccccc4)[C@]3(C)C2=O)c1 |  | inconclusive: 172% |  |
| Cc1nc2ccccc2nc1CSc1nncs1 |  | inconclusive: 37.9% |  |
| CN(C)c1nc(N)nc(-c2nc3ccccc3s2)n1 | inconclusive: 3.26 µM [activator, partial curve] |  |  |
| COC(=O)c1ccc2c(=O)n(CCN3CCOCC3)c(SCC(=O)Nc3ccc(C)cc3)nc2c1 | inconclusive: 29.1 µM [falling, single point] |  |  |
| COc1cc(CN2CCC(C(=O)N3CCN(c4ccccc4F)CC3)CC2)cc(OC)c1O | inconclusive: 3.26 µM [falling, full curve] |  |  |
| CCCCN1C(Nc2ccccc2)=NC[C@@H]1C | inconclusive: 0.461 µM [activator, full curve] |  |  |
| C/C(=N\NC(=O)c1c(Br)c(C)nn1C)c1ccc(NC(=O)C(C)Oc2ccc(Cl)cc2C)cc1 (centres undefined) |  | inconclusive: -50.3% |  |
| COc1ccc(C(CNC(=O)c2cccc(S(=O)(=O)N3CCOCC3)c2)N2CCCC2)cc1 (centres undefined) |  | inconclusive: 4.4% |  |
| Cc1ccc(S(=O)(=O)N2CCC(=O)N(CCOC(=O)Nc3ccc(F)cc3)CC2)cc1 |  | inconclusive: 19.6% |  |
| CC(C)(C)CN1CCNC(=O)C1CC(=O)NCc1cccc(-n2cccn2)c1 (centres undefined) |  | inconclusive: -3.12% |  |
| O=C(Cc1cccs1)Nc1nnc(-c2ccccc2)s1 |  | inconclusive: 44.2% |  |
| CN(C(=O)c1ccncc1)C1CCCCC1 |  | inconclusive: 13% |  |
| COC(=O)c1cn(NC(=O)c2cc([N+](=O)[O-])ccc2F)c(=O)c2ccccc12 |  | inconclusive: 11.6% |  |
| CCOC(=O)c1nn(-c2ccc(OC)cc2)c(=O)c2c(N)scc12 |  | inconclusive: -4.36% |  |
| COc1ccc(CSc2nnc(C)n2N)cc1Br |  | inconclusive: -23.9% |  |
| CCOc1ccc(N2CC(NS(=O)(=O)c3cccs3)CC2=O)cc1 (centres undefined) |  | inconclusive: 44.6% |  |
| Cc1ccccc1NC(=O)/C(C#N)=C\c1ccsc1 |  | inconclusive: 7.85% |  |
| Cc1ccc2c(c1)C(c1ccccc1)N(C(=O)c1ccc(S(=O)(=O)N3CCOCC3)cc1)CC(=O)N2 (centres undefined) | inconclusive: 6.51 µM [activator, single point] |  |  |
| CN(Cc1ccco1)S(=O)(=O)c1nnc(NC(=O)c2ccccc2Cl)s1 |  | inconclusive: -0.325% |  |
| CCCc1cc(Nc2ccc(C)cc2)n2ncnc2n1 | inconclusive: 29.1 µM [falling, single point] |  |  |
| O=C(OCCN1CCOCC1)c1cccs1 |  | inconclusive: -9.52% |  |
| O=C(COc1ccc2ccccc2c1)N1CCN(c2ccccc2)CC1 |  | inconclusive: 2% |  |
